The reference is the same well before dosing, and untreated signal decays as well.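 The tumor cells are basal-like or mesenchymal-like triple-negative breast cancer lines cultured without fibroblasts. Reduced red signal indicates lost mitochondrial integrity, serving as a proxy for apoptotic death.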
Key:
Test in all cases: relative JC-1 red fluorescence (viability) vs pre-drug, monoculture (fraction); higher = more viable cancer cells
Settings in all cases: coculture fibroblast: none (monoculture)
MDAMB231 = system: MDAMB231
Procedure: (§1)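 JC-1 labelled TNBC cells grown in monoculture (density kept equal with unlabelled cancer cells) in 384-well plates in FluoroBrite medium, treated with one of 42 anticancer drugs at 0.1, 1, 10 or 100 uM. JC-1 red fluorescence (mitochondrial integrity, surrogate of apoptotic death) was read by plate reader every 8 h for 72 h. Values are normalised to each well's pre-drug value, with background from alamethicin. The stock of one drug was tenfold lower, so its dose labels may be too high. Monoculture values are repeated alongside each fibroblast plate and are averaged here.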

MDAMB468 = system: MDAMB468
Procedure: as §1

Hs578T = system: Hs578T
Procedure: as §1

BT20 = system: BT20
Procedure: as §1

CO[C@H]1C[C@@H]2CC[C@@H](C)[C@@](O)(O2)C(=O)C(=O)N2CCCC[C@H]2C(=O)O[C@H]([C@H](C)C[C@@H]2CC[C@@H](OCCO)[C@H](OC)C2)CC(=O)[C@H](C)/C=C(\C)[C@@H](O)[C@@H](OC)C(=O)[C@H](C)C[C@H](C)/C=C/C=C/C=C/1C [Everolimus]
relative JC-1 red fluorescence
Settings | 8 h | 16 h | 24 h | 32 h | 40 h | 48 h | 56 h | 64 h | 72 h
BT20, 0.1 µM | 0.955 | 0.871 | 0.776 | 0.711 | 0.672 | 0.639 | 0.612 | 0.586 | 0.562
BT20, 1 µM | 0.927 | 0.866 | 0.79 | 0.751 | 0.728 | 0.71 | 0.69 | 0.672 | 0.666
BT20, 10 µM | 0.9457 | 0.8776 | 0.823 | 0.773 | 0.735 | 0.707 | 0.677 | 0.649 | 0.634
BT20, 100 µM | 0.928 | 0.885 | 0.753 | 0.572 | 0.425 | 0.324 | 0.2501 | 0.218 | 0.208
Hs578T, 0.1 µM | 0.862 | 0.732 | 0.671 | 0.6164 | 0.5788 | 0.5593 | 0.5399 | 0.5422 | 0.5307
Hs578T, 1 µM | 0.866 | 0.747 | 0.688 | 0.615 | 0.569 | 0.545 | 0.519 | 0.52 | 0.515
Hs578T, 10 µM | 0.935 | 0.8331 | 0.863 | 0.804 | 0.769 | 0.767 | 0.748 | 0.76 | 0.758
Hs578T, 100 µM | 0.816 | 0.878 | 0.83 | 0.766 | 0.6686 | 0.585 | 0.524 | 0.454 | 0.396
MDAMB231, 0.1 µM | 0.776 | 0.701 | 0.724 | 0.69 | 0.671 | 0.6888 | 0.6708 | 0.706 | 0.707
MDAMB231, 1 µM | 0.761 | 0.738 | 0.602 | 0.636 | 0.597 | 0.575 | 0.54 | 0.536 | 0.531
MDAMB231, 10 µM | 0.7824 | 0.821 | 0.854 | 0.8676 | 0.8455 | 0.8365 | 0.8242 | 0.85 | 0.835
MDAMB231, 100 µM | 0.894 | 0.807 | 0.81 | 0.935 | 0.868 | 0.834 | 0.715 | 0.788 | 0.775
MDAMB468, 0.1 µM | 0.8829 | 0.7914 | 0.719 | 0.656 | 0.627 | 0.614 | 0.584 | 0.571 | 0.558
MDAMB468, 1 µM | 0.884 | 0.819 | 0.771 | 0.708 | 0.675 | 0.668 | 0.653 | 0.639 | 0.633
MDAMB468, 10 µM | 0.937 | 0.8762 | 0.83962 | 0.7642 | 0.734 | 0.714 | 0.6718 | 0.65241 | 0.6325
MDAMB468, 100 µM | 0.818 | 0.8502 | 0.783 | 0.757 | 0.663 | 0.574 | 0.498 | 0.428 | 0.369

— the supplement of paper PMC6078165
